The reference is the same well before dosing, and untreated signal decays as well.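 Labels refer to human fibroblasts, largely primary: uterine (C12385, HUF), lung (H6013), bone (Hs27A), adrenal (HADF), skin (WS1), plus mammary HMF and breast cancer-associated Hs343T. Cancer lines are basal-like or mesenchymal-like triple-negative breast cancer. The paper counts as hits responses shifting over 3x the replicate standard deviation. The tissue of the other fibroblasts is not given here.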
System: MDAMB436
Test: relative JC-1 red fluorescence (viability) vs pre-drug, coculture with fibroblast (fraction); higher = more viable cancer cells
Conditions: 100 µM
Method: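 JC-1 labelled TNBC cells cocultured 1:1 (1,500 cells each) with CellTrace Violet stained primary or stromal fibroblasts in 384-well plates in FluoroBrite medium, treated with one of 42 anticancer drugs at 0.1, 1, 10 or 100 uM. JC-1 red fluorescence (mitochondrial integrity in cancer cells only) was read by plate reader every 8 h for 72 h. Values are normalised to each well's pre-drug value. The stock of one drug was tenfold lower, so its dose labels may be too high.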

COc1cc([C@@H]2c3cc4c(cc3[C@@H](O[C@@H]3O[C@@H]5CO[C@@H](c6cccs6)O[C@H]5[C@H](O)[C@H]3O)[C@H]3COC(=O)[C@H]23)OCO4)cc(OC)c1O [Teniposide]
relative JC-1 red fluorescence
Conditions | 8 h | 16 h | 24 h | 32 h | 40 h | 48 h | 56 h | 64 h | 72 h
coculture fibroblast: C12385 | 0.881 | 0.874 | 0.891 | 0.859 | 0.87 | 0.898 | 0.931 | 0.935 | 0.944
coculture fibroblast: H6013 | 0.922 | 0.891 | 0.847 | 0.905 | 0.777 | 0.909 | 0.783 | 0.746 | 0.847
coculture fibroblast: H6019 | 0.8889 | 0.87875 | 0.902 | 0.886 | 0.951 | 0.884 | 0.879 | 0.785 | 0.864
coculture fibroblast: H6076 | 0.85 | 0.852 | 0.901 | 0.88826 | 0.9336 | 0.95 | 0.955 | 0.794 | 0.8965
coculture fibroblast: H6231 | 0.757 | 0.742 | 0.836 | 0.777 | 0.807 | 0.813 | 0.845 | 0.858 | 0.856
coculture fibroblast: HADF | 0.938 | 0.969 | 0.984 | 0.941 | 0.753 | 0.841 | 0.75 | 0.764 | 0.863
coculture fibroblast: HCFa | 0.923 | 0.929 | 0.947 | 0.922 | 0.765 | 0.8792 | 0.73 | 0.765 | 0.766
coculture fibroblast: HCPF | 0.787 | 0.786 | 0.825 | 0.792 | 0.817 | 0.821 | 0.843 | 0.844 | 0.848
coculture fibroblast: HHSteC | 0.964 | 0.833 | 0.875 | 0.936 | 0.963 | 0.815 | 0.907 | 0.887 | 0.884
coculture fibroblast: HMF | 0.844 | 0.84 | 0.903 | 0.888 | 0.909 | 0.92 | 0.822 | 0.918 | 0.917
coculture fibroblast: HPFa | 0.9878 | 0.857 | 0.911 | 0.831 | 0.802 | 0.7208 | 0.883 | 0.817 | 0.902
coculture fibroblast: HUF | 0.921 | 0.91 | 0.934 | 0.916 | 0.794 | 0.833 | 0.91113 | 0.802 | 0.839
coculture fibroblast: Hs5 | 0.859 | 0.867 | 0.892 | 0.87 | 0.886 | 0.865 | 0.883 | 0.878 | 0.875
coculture fibroblast: Hs27A | 0.983 | 0.852 | 0.763 | 0.768 | 0.808 | 0.766 | 0.753 | 0.744 | 0.811
coculture fibroblast: Hs343T | 0.771 | 0.7845 | 0.8096 | 0.875 | 0.87 | 0.852 | 0.893 | 0.909 | 0.887
coculture fibroblast: WS1 | 0.889 | 0.865 | 0.891 | 0.854 | 0.89 | 0.915 | 0.926 | 0.93 | 0.937
